The results in this text go back to publication doi:10.1101/2022.08.09.503299.

Sequences of proteins named here, by UniProt entry; tags and fusion partners are left off. Residues count along the entry.
UniProt P48643: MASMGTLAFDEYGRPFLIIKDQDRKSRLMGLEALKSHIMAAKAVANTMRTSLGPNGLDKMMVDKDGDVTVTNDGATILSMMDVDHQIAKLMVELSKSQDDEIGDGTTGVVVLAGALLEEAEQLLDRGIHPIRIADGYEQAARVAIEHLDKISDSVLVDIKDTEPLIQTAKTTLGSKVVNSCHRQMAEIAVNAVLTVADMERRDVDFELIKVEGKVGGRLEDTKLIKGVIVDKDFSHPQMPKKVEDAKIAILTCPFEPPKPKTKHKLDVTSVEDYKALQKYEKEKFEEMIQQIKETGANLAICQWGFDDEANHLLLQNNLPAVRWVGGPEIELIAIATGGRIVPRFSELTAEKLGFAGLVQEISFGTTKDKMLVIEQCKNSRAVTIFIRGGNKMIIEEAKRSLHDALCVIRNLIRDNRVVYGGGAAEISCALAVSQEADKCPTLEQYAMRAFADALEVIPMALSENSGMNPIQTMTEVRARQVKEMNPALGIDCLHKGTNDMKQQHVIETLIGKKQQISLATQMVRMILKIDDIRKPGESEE
UniProt Q99832: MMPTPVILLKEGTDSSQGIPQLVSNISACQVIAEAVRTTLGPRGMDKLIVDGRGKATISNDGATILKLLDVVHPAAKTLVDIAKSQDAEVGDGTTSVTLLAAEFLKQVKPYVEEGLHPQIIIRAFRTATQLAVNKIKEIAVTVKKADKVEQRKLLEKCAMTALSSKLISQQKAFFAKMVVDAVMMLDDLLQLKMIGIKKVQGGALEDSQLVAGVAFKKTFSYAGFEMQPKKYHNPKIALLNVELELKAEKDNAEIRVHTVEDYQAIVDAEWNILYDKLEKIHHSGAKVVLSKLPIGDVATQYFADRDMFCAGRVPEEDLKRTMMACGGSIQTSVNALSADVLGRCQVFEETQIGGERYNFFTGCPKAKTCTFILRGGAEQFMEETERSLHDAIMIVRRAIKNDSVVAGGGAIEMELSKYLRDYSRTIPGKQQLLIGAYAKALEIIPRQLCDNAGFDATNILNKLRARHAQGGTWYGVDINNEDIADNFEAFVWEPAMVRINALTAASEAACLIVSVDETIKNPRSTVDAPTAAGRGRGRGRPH
UniProt P01106: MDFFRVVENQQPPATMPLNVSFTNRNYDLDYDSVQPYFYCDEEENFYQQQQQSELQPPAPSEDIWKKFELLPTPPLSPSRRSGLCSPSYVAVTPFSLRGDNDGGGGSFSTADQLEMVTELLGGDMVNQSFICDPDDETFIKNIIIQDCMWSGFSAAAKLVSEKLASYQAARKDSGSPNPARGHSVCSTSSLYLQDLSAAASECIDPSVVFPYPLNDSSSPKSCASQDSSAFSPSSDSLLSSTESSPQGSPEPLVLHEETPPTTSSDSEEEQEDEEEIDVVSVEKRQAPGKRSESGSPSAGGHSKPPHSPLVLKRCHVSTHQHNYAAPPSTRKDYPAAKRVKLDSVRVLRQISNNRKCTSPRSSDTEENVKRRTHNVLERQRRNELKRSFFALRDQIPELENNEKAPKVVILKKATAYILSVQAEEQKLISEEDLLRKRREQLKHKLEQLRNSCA
UniProt Q9BXM7, residues 78-581: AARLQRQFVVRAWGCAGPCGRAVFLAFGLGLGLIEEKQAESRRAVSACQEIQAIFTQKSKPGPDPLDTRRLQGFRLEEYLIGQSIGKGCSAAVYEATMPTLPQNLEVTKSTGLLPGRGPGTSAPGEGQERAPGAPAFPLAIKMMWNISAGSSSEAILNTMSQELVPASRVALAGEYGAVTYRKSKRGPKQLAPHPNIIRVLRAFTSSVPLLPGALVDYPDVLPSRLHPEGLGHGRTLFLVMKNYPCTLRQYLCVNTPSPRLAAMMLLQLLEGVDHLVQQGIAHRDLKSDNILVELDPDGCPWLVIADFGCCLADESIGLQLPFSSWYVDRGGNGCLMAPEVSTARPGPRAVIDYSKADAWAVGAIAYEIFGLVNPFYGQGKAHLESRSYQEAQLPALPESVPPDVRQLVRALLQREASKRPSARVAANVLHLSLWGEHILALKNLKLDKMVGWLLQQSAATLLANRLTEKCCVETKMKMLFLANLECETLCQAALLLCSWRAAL
UniProt Q53EQ6: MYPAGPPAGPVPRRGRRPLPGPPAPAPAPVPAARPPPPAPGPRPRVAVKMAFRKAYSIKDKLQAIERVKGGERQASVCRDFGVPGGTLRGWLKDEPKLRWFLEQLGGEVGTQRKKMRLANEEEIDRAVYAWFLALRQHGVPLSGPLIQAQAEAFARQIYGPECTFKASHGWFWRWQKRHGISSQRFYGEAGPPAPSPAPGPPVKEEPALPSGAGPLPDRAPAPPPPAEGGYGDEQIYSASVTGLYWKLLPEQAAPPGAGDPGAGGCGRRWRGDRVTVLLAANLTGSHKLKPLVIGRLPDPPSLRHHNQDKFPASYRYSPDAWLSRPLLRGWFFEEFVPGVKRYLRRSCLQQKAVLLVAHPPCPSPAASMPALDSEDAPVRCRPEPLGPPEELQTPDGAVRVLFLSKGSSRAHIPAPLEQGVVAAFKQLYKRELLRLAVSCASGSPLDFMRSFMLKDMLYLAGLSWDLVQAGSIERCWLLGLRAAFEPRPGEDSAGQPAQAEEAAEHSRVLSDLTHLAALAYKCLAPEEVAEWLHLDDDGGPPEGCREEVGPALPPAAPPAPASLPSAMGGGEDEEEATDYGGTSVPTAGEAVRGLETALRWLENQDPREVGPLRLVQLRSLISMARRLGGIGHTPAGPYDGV
UniProt P37802: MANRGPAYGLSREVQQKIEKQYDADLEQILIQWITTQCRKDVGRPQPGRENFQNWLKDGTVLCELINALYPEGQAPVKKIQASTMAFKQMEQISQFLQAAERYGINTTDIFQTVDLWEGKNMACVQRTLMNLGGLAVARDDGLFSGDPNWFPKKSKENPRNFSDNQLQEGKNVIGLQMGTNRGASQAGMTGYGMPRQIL
UniProt Q9WVA4: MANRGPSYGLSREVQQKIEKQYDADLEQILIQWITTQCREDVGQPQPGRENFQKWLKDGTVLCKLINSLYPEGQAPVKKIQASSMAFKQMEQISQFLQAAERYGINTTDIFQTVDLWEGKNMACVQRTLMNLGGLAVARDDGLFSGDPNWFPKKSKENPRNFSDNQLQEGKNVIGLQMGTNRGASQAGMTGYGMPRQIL

Like-named read-outs stand apart in the source and are kept apart here. No constants are given. Whether binding was seen depends on the method and setting. In cells and extracts the contact can be indirect. These calls come from enrichment with a bait or labelling near it, and not all partners need be listed. For part of these data: Where a sequence is shown, tags or fusion partners need not be part of it.

What all share (assay): proximity labelling
The target in experiment [1] is PSMA4-BirA*-FLAG (UniProt P25789).
For experiment [2], the target named is PSMA4-miniTurbo-FLAG (HEK293T cell line) (UniProt P25789).
In experiment [3] the target is T1, PSMA4-miniTurbo with FLAG tag (ProteasomeID mouse) (UniProt Q9R1P0).
T1 sequence: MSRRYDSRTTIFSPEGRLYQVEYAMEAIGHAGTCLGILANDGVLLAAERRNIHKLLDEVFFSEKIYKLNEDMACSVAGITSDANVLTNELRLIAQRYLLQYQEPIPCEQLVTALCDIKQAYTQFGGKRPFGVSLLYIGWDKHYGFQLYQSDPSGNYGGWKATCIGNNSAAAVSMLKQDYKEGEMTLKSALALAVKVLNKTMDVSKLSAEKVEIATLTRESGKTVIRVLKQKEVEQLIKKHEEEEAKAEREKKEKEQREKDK

Experiment [4] concerns the target PSMA4-BirA*-FLAG (UniProt P25789). This is another data set of the same source.
In experiment [5] the target is PSMA4-miniTurbo-FLAG (HEK293T cell line) (UniProt P25789). This is another data set of the same source.
Experiment [6] deals with T1, PSMA4-miniTurbo with FLAG tag (ProteasomeID mouse). The source holds these as a separate data set.

With CCT5 (from UniProt P48643 1-541), the binding entry in experiment [1] was “binds”.
Turning to CCT7 (from UniProt Q99832 1-543), in experiment [1], the binding result is on record as “binds”.
On to MYC (from UniProt P01106 1-454), for which the binding entry in experiment [2] is reported as “binds”.
On the same count and under the same terms, the entry for PINK1 (from UniProt Q9BXM7 78-581) is “binds”.
Take “Tigger transposable element-derived protein 5 (from UniProt Q53EQ6 1-642)”: the binding entry in experiment [2] is “binds”.
With “transgelin 2 (TAGLN2), endogenous in HEK293T (from UniProt P37802 1-199)”, the binding result in experiment [1] is reported as “binds”.
With “transgelin 2 (TAGLN2), endogenous in mouse organs (from UniProt Q9WVA4 1-199)”, the binding result in experiment [3] is on record as “binds”.

B1: immunoglobulin-binding protein 1 (IGBP1), endogenous in HEK293T (protein, UniProt P78318 1-339)
chain: MAAEDELQLPRLPELFETGRQLLDEVEVATEPAGSRIVQEKVFKGLDLLEKAAEMLSQLDLFSRNEDLEEIASTDLKYLLVPAFQGALTMKQVNPSKRLDHLQRAREHFINYLTQCHCYHVAEFELPKTMNNSAENHTANSSMAYPSLVAMASQRQAKIQRYKQKKELEHRLSAMKSAVESGQADDERVREYYLLHLQRWIDISLEEIESIDQEIKILRERDSSREASTSNSSRQERPPVKPFILTRNMAQAKVFGAGYPSLPTMTVSDWYEQHRKYGALPDQGIAKAAPEEFRKAAQQQEEQEEKEEEDDEQTLHRAREWDDWKDTHPRGYGNRQNMG
With B1, the binding entry in experiment [4] is on record as “binds”.

B2: BRCA1-associated ATM activator 1 (protein, UniProt Q6PJG6 1-821)
chain: MDPECAQLLPALCAVLVDPRQPVADDTCLEKLLDWFKTVTEGESSVVLLQEHPCLVELLSHVLKVQDLSSGVLSFSLRLAGTFAAQENCFQYLQQGELLPGLFGEPGPLGRATWAVPTVRSGWIQGLRSLAQHPSALRFLADHGAVDTIFSLQGDSSLFVASAASQLLVHVLALSMRGGAEGQPCLPGGDWPACAQKIMDHVEESLCSAATPKVTQALNVLTTTFGRCQSPWTEALWVRLSPRVACLLERDPIPAAHSFVDLLLCVARSPVFSSSDGSLWETVARALSCLGPTHMGPLALGILKLEHCPQALRTQAFQVLLQPLACVLKATVQAPGPPGLLDGTADDATTVDTLLASKSSCAGLLCRTLAHLEELQPLPQRPSPWPQASLLGATVTVLRLCDGSAAPASSVGGHLCGTLAGCVRVQRAALDFLGTLSQGTGPQELVTQALAVLLECLESPGSSPTVLKKAFQATLRWLLSSPKTPGCSDLGPLIPQFLRELFPVLQKRLCHPCWEVRDSALEFLTQLSRHWGGQADFRCALLASEVPQLALQLLQDPESYVRASAVTAMGQLSSQGLHAPTSPEHAEARQSLFLELLHILSVDSEGFPRRAVMQVFTEWLRDGHADAAQDTEQFVATVLQAASRDLDWEVRAQGLELALVFLGQTLGPPRTHCPYAVALPEVAPAQPLTEALRALCHVGLFDFAFCALFDCDRPVAQKSCDLLLFLRDKIASYSSLREARGSPNTASAEATLPRWRAGEQAQPPGDQEPEAVLAMLRSLDLEGLRSTLAESSDHVEKSPQSLLQDMLATGGFLQGDEADCY
For B2, the binding result in experiment [5] is reported as “binds”.

B3: armadillo containing protein 6 (protein, UniProt Q6NXE6 1-501)
chain: MSERCCSRYSSGASIGCTPTSTQAKMVSKRIAQETFDAAVRENIEEFAMGPEEAVKEAVEQFESQGVDLSNIVKTAPKVSADGSQEPTHDILQMLSDLQESVASSRPQEVSAYLTRFCDQCKQDKACRFLAAQKGAYPIIFTAWKLATAGDQGLLLQSLNALSVLTDGQPDLLDAQGLQLLVATLTQNADEADLTCSGIRCVRHACLKHEQNRQDLVKAGVLPLLTGAITHHGHHTDVVREACWALRVMTFDDDIRVPFGHAHNHAKMIVQENKGLKVLIEATKAFLDNPGILSELCGTLSRLAIRNEFCQEVVDLGGLSILVSLLADCNDHQMRDQSGVQELVKQVLSTLRAIAGNDDVKDAIVRAGGTESIVAAMTQHLTSPQVCEQSCAALCFLALRKPDNSRIIVEGGGAVAALQAMKAHPQKAGVQKQACMLIRNLVAHGQAFSKPILDLGAEALIMQARSAHRDCEDVAKAALRDLGCHVELRELWTGQRGNLAP
For B3, in experiment [5], the binding result is listed as “binds”.

B4: CCT2 (protein, UniProt P78371 1-535)
chain: MASLSLAPVNIFKAGADEERAETARLTSFIGAIAIGDLVKSTLGPKGMDKILLSSGRDASLMVTNDGATILKNIGVDNPAAKVLVDMSRVQDDEVGDGTTSVTVLAAELLREAESLIAKKIHPQTIIAGWREATKAAREALLSSAVDHGSDEVKFRQDLMNIAGTTLSSKLLTHHKDHFTKLAVEAVLRLKGSGNLEAIHIIKKLGGSLADSYLDEGFLLDKKIGVNQPKRIENAKILIANTGMDTDKIKIFGSRVRVDSTAKVAEIEHAEKEKMKEKVERILKHGINCFINRQLIYNYPEQLFGAAGVMAIEHADFAGVERLALVTGGEIASTFDHPELVKLGSCKLIEEVMIGEDKLIHFSGVALGEACTIVLRGATQQILDEAERSLHDALCVLAQTVKDSRTVYGGGCSEMLMAHAVTQLANRTPGKEAVAMESYAKALRMLPTIIADNAGYDSADLVAQLRAAHSEGNTTAGLDMREGTIGDMAILGITESFQVKRQVLLSAAEAAEVILRVDNIIKAAPRKRVPDHHPC
Turning to B4, the binding result in experiment [4] is reported as “binds”.

B5: immunoglobulin-binding protein 1 (IGBP1), endogenous in mouse organs (protein, UniProt Q61249 1-340)
chain: MAASEDELLLPRLPELFETSKKLLEDVEVATEPTGSRTIQDKVSKGLELLEKAAGMLSQLDLFSRNEDLEEIASTDLKYLMVPALQGALTMKQVNPSKRLDHLQRAREHFVHFLTQCHCYHVAEFQLPQTKTNSAENNTASSSMAYPNLVAMASQRQAKIERYKQKKEVEHRLSALKSAVESGQADDERVREYHLLHLRRWIAVSLEELESIDQEIKILKEKDSPREETACHSSLPEKPPMKPFILTRNKAQAKVFGTGYPSLATMTVSDWYEQHQKYGVLPDRGIAKPASADFQRAAQQQEDQEQKDEESEEKALHRMREWDDWKDTHPRGYGNRQNMG
As to B5, the binding result in experiment [6] was “binds”.
